# Results are given in words; binding and its absence hold for the method and conditions named. Binding seen in cells or lysates may run through a third protein. Binding can be weak; no strength is given. Where a sequence is shown, tags or fusion partners need not be part of it.
# Target: T1, CC IFT20-GST (UniProt Q8IY31)
# T1 sequence: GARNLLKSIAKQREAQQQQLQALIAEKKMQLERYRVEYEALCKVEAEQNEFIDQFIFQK
# Assay: pull-down; recombinant GST fusion proteins on GSH-Sepharose incubated 2 h at 4°C with precleared postnuclear supernatants of Jurkat cells (5 x 10^7 cells/sample, 0.5% Triton X-100); 4 washes; immunoblot; only the target purified
substance,measurement,value
Rab5 (human (endogenous in Jurkat)),binding,binds

# Source: PMC8019791
